The nature of the experiment: qHTS Assay for Lipid Storage Modulators in Drosophila S3 Cells.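 As to cell number change: cells counted by Cell Tracker Red CMTPX staining in the red channel.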 Particulars: BODIPY lipid droplet fluorescence, 18-24 h; for cell number change: measured here: cell count max response, cells fed with added oleic acid. In a few lines: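 Drosophila S3 cells got compounds at several concentrations plus oleic acid (400 uM solution). Laser-scanning cytometry with 488 nm excitation read lipid droplets at 500-530 nm and cells at 575-640 nm. Percent activity was relative to 20 uM Triacsin C.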
A general note: qHTS replaces the single test concentration by a dilution series.

The mark [1] stands for this setting: measured here: cell number channel AC50, cells fed with added oleic acid.
The mark [2] stands for this setting: measured here: lipid fluorescence (Fed channel) AC50, cells fed with added oleic acid.

One may read the AC50 as the midpoint of the concentration-response curve, whichever way the signal moves. High values mean activity only at high concentration, low ones activity at low concentration.

The structures appear in SMILES notation. This is one part of the list. These are further read-outs of the screen, such as a control signal, another cell line or another target. No call is given for them. The list favours compounds with an active or inconclusive main result. The note in brackets gives the kind of curve behind each potency; many fits are weak.

Turning to `COc1cccc(-c2ncc3ccccc3c2COC(=O)c2ccco2)c1`, the cell number change is -40.1%. For the same compound, the AC50 under setting [1] is 29.1 µM [falling, single point]. In addition, under setting [2], the AC50 is 29.1 µM [falling, single point].

`Cc1ccccc1OCC(O)CN1CCN(CCN2C(=O)c3cccc4cccc(c34)C2=O)CC1` (centres undefined): the cell number change turned out to be 2.38%. Also, the AC50 under setting [2] was 0.651 µM [rising, partial curve, poor fit].

In the case of `CCc1ccc(NC(=O)Cc2ccc(OC)cc2)cc1`, the cell number change was -10.5%. Besides, the AC50 under setting [2] is 6.51 µM [rising, partial curve, poor fit].

On to `Cc1cc(C)c(NC(=O)CN(C)C(=O)C2CC(=O)N(c3cccc4ccccc34)C2)c(C)c1` (centres undefined), for which the cell number change was -5.77%. The AC50 under setting [2] was 6.51 µM [rising, partial curve].

With `Cc1cc(C)c(C)c(S(=O)(=O)NCC(=O)NCC2CCCCC2)c1C`, the cell number change was determined as 22.9%. Further, the AC50 under setting [2] is 0.116 µM [falling, full curve, poor fit].

`CCCc1[nH]c(=O)c(C#N)c2c1COC(C)(C)C2`: the cell number change stood at 16.3%. For the same compound, under setting [2], the AC50 is 0.461 µM [falling, single point].

Consider `CCN1C(=O)[C@@H]2[C@@H](c3ccc(-c4ccc(OC)cc4)c(OC)c3)N3CCCC[C@@]3(C(=O)OC)[C@@H]2C1=O`, for which the AC50 under setting [2] is 8.2 µM [falling, partial curve].

With `COc1cccc(C2c3[nH]c4ccccc4c3CCN2Cc2cccn2-c2ncccn2)c1` (centres undefined), the cell number change is 19.2%. In addition, under setting [2], the half-maximal activity concentration (AC50) was 16.4 µM [rising, single point].

Regarding `COc1ccc(-c2nnc(NC(=O)c3ccc(S(=O)(=O)N4CCCc5ccccc54)cc3)o2)cc1`, the cell number change was -3.53%. For the same compound, the AC50 under setting [2] is 4.11 µM [falling, full curve, poor fit].

For `CCOC(=O)c1c(C)[nH]c(C)c1C(=O)CSc1nnc(-c2ccncc2)n1Cc1ccccc1`, the AC50 is 0.206 µM [rising, full curve] under setting [1] and 0.366 µM [rising, full curve] under setting [2].

`CC(=O)c1ccc(S(=O)(=O)N(CC(=O)NC2CC2)Cc2ccc(F)cc2)cc1`: the cell number change is -13.4%. For the same compound, the half-maximal activity concentration (AC50) under setting [2] was 1.46 µM [falling, partial curve].

Take `COc1cccc(N(C(=O)CNC(=O)c2ccco2)C(C(=O)NC2CCCCC2)c2cccnc2)c1` (centres undefined): the cell number change is -18.1%. The AC50 under setting [2] is 0.291 µM [falling, full curve].

For `CCOc1ccccc1CN1CCN(S(C)(=O)=O)CC1`, the cell number change is -5.9%. For the same compound, the half-maximal activity concentration (AC50) under setting [1] is 6.51 µM [falling, single point].

In the case of `CC(C)CN(C(=O)CSc1nncs1)c1c(N)n(CC(C)C)c(=O)[nH]c1=O`, the cell number change came to 0.755%. For the same compound, under setting [2], the AC50 is 0.92 µM [rising, full curve, poor fit].

For `COc1ccc(N(C=O)C(=S)SC)cc1`, the cell number change was -22.6%. Under setting [1], the AC50 was 2.31 µM [rising, single point]. Also, the concentration at half-maximal activity (AC50) under setting [2] is 4.11 µM [rising, single point].

For `O=C(NCCN1CCOCC1)c1ccc2c(c1)N(Cc1cccc(F)c1)C(=O)c1ccccc1S2`, the cell number change came out at 14.8%.

With `CC(=O)c1cccc(NC(=O)C2CCCN(S(=O)(=O)c3cccc4cccnc34)C2)c1` (centres undefined), the cell number change was -10.7%. Further, under setting [2], the AC50 is 1.46 µM [rising, partial curve].

Take `CS(=O)(=O)Nc1ccc(C2=NN(S(C)(=O)=O)C(c3ccc4c(c3)OCO4)C2)cc1` (centres undefined): the cell number change turned out to be 29.3%. Moreover, the AC50 under setting [2] is 5.8 µM [rising, partial curve].

For `CC(=O)N(c1ccccc1)c1c(F)c(F)c(F)c(F)c1F`, the cell number change is -221%. In addition, the AC50 under setting [1] is 29.1 µM [falling, partial curve]. Also, the AC50 under setting [2] is 25.9 µM [falling, partial curve].

For the compound `Cc1noc(C)c1COC(=O)c1cccnc1SCC(=O)Nc1ccc2c(c1)OCO2`, the cell number change is -17.7%. The AC50 under setting [2] was 0.00461 µM [rising, full curve, poor fit].

Regarding `CSc1ncccc1C(=O)OCc1ccc(Br)cc1`, the cell number change was determined as 31.8%.

For `CCNC(=O)NC(=O)C(C)Oc1ccc(Br)cc1Br` (centres undefined), the cell number change was -7.71%. Further, under setting [2], the AC50 is 6.51 µM [falling, partial curve, poor fit].

Take `COc1ccc(N/C(N)=N/c2nc(C)cc(=O)[nH]2)cc1`: under setting [2], the AC50 is 20.6 µM [rising, partial curve].

With `CN(C)Cc1cc(CCNC(=O)c2ccc(Cl)cc2)ccc1O`, the cell number change came to 9.91%. For the same compound, the AC50 under setting [2] is 29.1 µM [rising, single point].

For `Cc1[nH]c2ccc(-c3nnc(SCC(=O)c4ccccc4F)o3)cc2c1C`, the cell number change is -23.7%. In addition, the AC50 under setting [2] is 1.84 µM [falling, partial curve, poor fit].

Consider `Cc1cc(C(=O)CSc2nnc(-c3ccccc3)n2-c2ccccc2)c(C)n1-c1ncn[nH]1`, for which the cell number change was 42.6%. Moreover, the AC50 under setting [1] is 13 µM [rising, partial curve, poor fit].

Regarding `CCc1nnc(NC(=O)CSc2nc3cccnc3n2C2CCCCC2)s1`, the cell number change amounted to 2.23%. In addition, the AC50 under setting [2] is 6.51 µM [rising, single point].

On to `O=C(c1sccc1-n1cccc1)N1CCCC1`, for which the cell number change is -2.5%.

Turning to `COc1ccc(C(c2sc3nc(C)nn3c2O)N2CCC3(CC2)OCCO3)cc1` (centres undefined), the cell number change was found to be 0.324%. Besides, the AC50 under setting [2] was 18.4 µM [rising, single point].

For the compound `Cn1c(=O)c2c(ncn2CC(=O)Nc2nc3ccc(F)cc3s2)n(C)c1=O`, the cell number change was 31.7%.

As for `Cc1ccccc1NC(=O)Nc1cc(-c2ccccc2)nn1C`, the cell number change was -20.3%. Further, the AC50 under setting [2] was 1.46 µM [falling, full curve].

On to `Cc1ccc(CC(=O)N/N=C/c2ccc3c(c2)OCO3)cc1`, for which the cell number change came to 11.1%. In addition, under setting [2], the AC50 was 7.31 µM [rising, partial curve].

Take `Cc1ccc(NC(=S)C2=C(O)c3ccccc3N(C)S2(=O)=O)cc1`: the cell number change was -38.7%. Further, the AC50 under setting [1] was 14.6 µM [falling, single point]. The AC50 under setting [2] is 18.4 µM [falling, single point].

With `CCOC(=O)c1c(NC(=S)Nc2ccc(OC)cc2)sc2c1CCCCC2`, the cell number change is -6.74%. For the same compound, under setting [2], the AC50 was 9.2 µM [rising, partial curve].

On to `Cc1ccccc1CC1SC(N)=NC1=O` (centres undefined), for which the cell number change was 15.5%.

On to `COc1ccc(OCC(=O)Nc2ccc(C)c(S(=O)(=O)N(C)C)c2)cc1`, for which the cell number change came out at 12%. In addition, the AC50 under setting [2] was 29.1 µM [falling, partial curve, poor fit].

Consider `CN(C(=O)c1ccc2c(=O)n3c(nc2c1)CCCCC3)c1ccccc1Cl`, for which the cell number change is 8.02%.

Consider `COc1ccc(/C=C/C(=O)c2ccc[nH]2)cc1OC`, for which the cell number change was found to be 2.85%. In addition, under setting [2], the AC50 was 0.461 µM [rising, single point].

Consider `COCCCNC(=O)c1c[nH]c2ccc(S(=O)(=O)N(C)c3ccccc3C)cc2c1=O`, for which the cell number change is -29.5%. The AC50 under setting [2] is 29.1 µM [falling, single point].

For the origin of these results see PubChem BioAssay AID2685 (National Center for Advancing Translational Sciences (NCATS), 2010).
